# Results: patent publication US3940248A, “Method for inhibiting corrosion of metal” (Otsuka Kagaku Yakuhin Kabushiki Kaisha, priority 1972, dated 1976)
# Experiments:
# [1] = Corrosion test, steel test pieces immersed in water with corrosive ions (Table 1); conditions: 100 p.p.m. inhibitor, 50 °C, 10 days, pH 7, 50 p.p.m. each Cl-, SO4--, HCO3-
# [2] = Corrosion test, cast iron test pieces immersed in water with corrosive ions (Table 1); conditions: 500 p.p.m. inhibitor, 50 °C, 10 days, pH 7, 50 p.p.m. each Cl-, SO4--, HCO3-
SMILES,Reduction of weight by corrosion [1] [mg/cm^2],Reduction of weight by corrosion [2] [mg/cm^2]
Cc1cc(O)c2nncn2n1 [compound 1],0.07,
CCCCCCCCCCc1nn2cnnc2c(O)c1CCC [compound 2],0.11,
CCCCCCc1cc(O)c2nncn2n1 [compound 3],,0.15
Oc1cc(Cc2ccccc2)nn2cnnc12 [compound 4],,0.23
